The target of one assay is T1, FV-810^QQ (human, UniProt P12259 29-838; P12259 1520-2224).
T1 construct: range 1-810;range 1492-2196; Both thrombin sites (Arg709 and Arg1545) changed to Gln; the assay field says where thrombin pretreatment was used
Description: fluorescence anisotropy; thrombin-pretreated FV-810 variants.

For assay [1], the target named is T2, FV-810^R1545Q pretreated with thrombin (human, UniProt P12259 29-737; P12259 738-838; P12259 1520-2224).
T2 construct: Cleaved only at Arg709: B-domain remnant stays tethered to the light chain; also called thrombin-cleaved FV-810^R1545Q
Description: fluorescence anisotropy; thrombin-cleaved FV-810 variants. (In general: In fluorescence polarisation assays a small probe gives low polarisation when free and higher when bound to something large.)

No constants are given. Whether binding was seen depends on the method and setting. Some entries that bind do so weakly or less than the wild type.

B1: Oregon Green 488 maleimide-modified BR (OG488-BR) (peptide)
peptide: CSRAWGESTPLANKPGKQSGHPKFPRVRHKSLQVRQDGGKSRLKKSQFLIKTRKKKKEK
modifications: Oregon Green 488 maleimide on the added N-terminal Cys
For the molecule B1, the binding result (with FV-810^QQ; in assay [1]) was “binds” throughout.

The record behind these values is patent US20160222085A1 (CHILDREN S HOSPITAL OF PHILADELPHIA, published 2016).
